Laboratory results published in patent US9682962B2, “Pyrazolyl pyrimidinamine compound and application thereof” (SHENYANG SINOCHEM AGROCHEMICALS R&D CO., LTD., priority 2013, dated 2017).
Some entries share one result that the patent states for a list of compounds.

Key:
wheat powdery mildew = assay: Protectant activity in vivo (whole plant), wheat powdery mildew; settings: 100 ppm
Experimental: (§1) The method is as followed: The whole plant is used in this test. The compound is dissolved in a proper solvent to get mother solution. The proper solvent is selected from acetone, methanol, DMF and so on according to their dissolving capability to the sample. […] The testing solution is sprayed to the host plant by a special plant sprayer. The plant is inoculated with fungus after 24 hours. According to the infecting characteristic of fungus, the plant is stored in a humidity chamber and then transferred into greenhouse after infection is finished. And the other plants are placed in greenhouse directly.

[1] = system: Green peach aphids (Myzus Persicae Sulzer); assay: Bioactivity test against green peach aphid (airbrush foliar spray); assay type: in vivo; settings: 100 ppm, after 48 h
Experimental: Compounds were dissolved in mixed solvent (acetone:methanol=1:1), and diluted to required concentration with water containing 0.1% of tween 80.
Diamond back moth, armyworm, peach aphid and carmine spider mite were used as targets and the method of spraying by airbrush was used for determination of insecticidal bioassays.
Method: Filter papers were put in culture dishes (Diameter=6 cm), and water was dripped on filter papers for preserving moisture. Green peach aphids (Myzus Persicae Sulzer) were maintained on cabbage. Leaves (Diameter=3 cm) of approximately 15-30 aphids were put in the culture dishes. Bioactivity tests were used the method of Airbrush Foliar Spray, pressure=10 psi (0.7 kg/cm2), spray volume=0.5 mL. The studies were conducted at […] 25±1 C in incubator cabinets with 60±5% RH. Survey the survival aphids after 48 h and calculate the death rates.

cucumber downy mildew = assay: Protectant activity in vivo (whole plant), cucumber downy mildew
Experimental: as §1

corn rust = assay: Protectant activity in vivo (whole plant), corn rust; settings: 100 ppm
Experimental: as §1

With CCc1ncnc(NCCc2cnn(C(C)(C)C)c2)c1Cl [Compound 23] the “protectant activity against wheat powdery mildew in vivo” value (wheat powdery mildew) was “more than 80%” and the “control against Green Peach Aphid (death rate)” value [1] was “more than 80%”.

With Cc1nc(C)c(Cl)c(NCCc2cnn(-c3ccc(Cl)cc3Cl)c2)n1 [Compound 1373] the “protectant activity against cucumber downy mildew in vivo” value (cucumber downy mildew; 25 ppm) was “more than 80%”, the “protectant activity against cucumber downy mildew in vivo” value (cucumber downy mildew; 50 ppm) was “more than 80%” and the “protectant activity against corn rust in vivo” value (corn rust) was “more than 80%”.

CCc1ncnc(NCCc2cnn(Cc3ccc(Cl)cc3)c2)c1Cl [Compound 5657] was tested, and the “protectant activity against cucumber downy mildew in vivo” value (cucumber downy mildew; 50 ppm) was “more than 80%”.

In the case of CCc1ncnc(NCCc2cnn(-c3ccc(Cl)cc3)c2)c1Cl.Cl [Compound 10932], the “protectant activity against cucumber downy mildew in vivo” value (cucumber downy mildew; 100 ppm) is reported as “more than 80%”.
